# Some of the results follow.
# B1: Lb MiSSP8 (Laccaria bicolor) (protein)
# chain: MYFHTLFACATLMLITTAHASPTVINSLDSRKADLNGDVEARHAADWRRDSDWRRDSDWRRDSDWRRDSD
# What was measured:
# Experiment in all cases: glycan array binding signal (z-score within array); higher = stronger binding
# Conditions in all cases: glycan notation: IUPAC condensed, linker removed
# [1] = biological target: Fuc(a1-3)[Gal3S(b1-4)]GlcNAc6S
# Outline: (§1)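 Columns mapping to the same glycan were averaged after glycan names were converted to IUPAC-condensed notation. The data come from 3228 arrays in the Consortium for Functional Glycomics database, limited to those with an available protein sequence. Binding is reported as a within-array Z-score averaged across arrays of one protein sequence and across linkers.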
# [2] = biological target: Fuc(a1-3)[GalNAc(b1-4)]GlcNAc
# Outline: as §1
# [3] = biological target: Fuc(a1-3)[GalNAc(b1-4)]GlcNAc6S
# Outline: as §1
# Fuc(a1-4)GlcNAc = biological target: Fuc(a1-4)GlcNAc
# Outline: as §1
# Fuc(b1-3)GlcNAc = biological target: Fuc(b1-3)GlcNAc
# Outline: as §1
# Gal(a1-2)Gal = biological target: Gal(a1-2)Gal
# Outline: as §1
# Gal(a1-3)Gal = biological target: Gal(a1-3)Gal
# Outline: as §1
# Gal(a1-3)Gal(b1-3)GlcNAc = biological target: Gal(a1-3)Gal(b1-3)GlcNAc
# Outline: as §1
# [4] = biological target: Gal(a1-3)Gal(b1-3)GlcNAc(b1-2)Man
# Outline: as §1
# [5] = biological target: Gal(a1-3)Gal(b1-3)GlcNAc(b1-2)Man(a1-3)[Gal(a1-3)Gal(b1-3)GlcNAc(b1-2)Man(a1-6)]Man(b1-4)GlcNAc(b1-4)GlcNAc
# Outline: as §1
# [6] = biological target: Gal(a1-3)Gal(b1-3)GlcNAc(b1-3)GalNAc
# Outline: as §1
# [7] = biological target: Gal(a1-3)Gal(b1-3)GlcNAc(b1-6)GalNAc
# Outline: as §1
# [8] = biological target: Gal(a1-3)Gal(b1-3)[Fuc(a1-4)]GlcNAc(b1-2)Man(a1-3)[Gal(a1-3)Gal(b1-3)[Fuc(a1-4)]GlcNAc(b1-2)Man(a1-6)]Man(b1-4)GlcNAc(b1-4)GlcNAc
# Outline: as §1
# Gal(a1-3)Gal(b1-4)Glc = biological target: Gal(a1-3)Gal(b1-4)Glc
# Outline: as §1
# Gal(a1-3)Gal(b1-4)GlcNAc = biological target: Gal(a1-3)Gal(b1-4)GlcNAc
# Outline: as §1
# [9] = biological target: Gal(a1-3)Gal(b1-4)GlcNAc(b1-2)Man
# Outline: as §1
# [10] = biological target: Gal(a1-3)Gal(b1-4)GlcNAc(b1-2)Man(a1-3)[Gal(a1-3)Gal(b1-4)GlcNAc(b1-2)Man(a1-6)]Man(b1-4)GlcNAc(b1-4)GlcNAc
# Outline: as §1
# [11] = biological target: Gal(a1-3)Gal(b1-4)GlcNAc(b1-3)GalNAc
# Outline: as §1
# [12] = biological target: Gal(a1-3)Gal(b1-4)GlcNAc(b1-6)GalNAc
# Outline: as §1
# [13] = biological target: Gal(a1-3)Gal(b1-4)[Fuc(a1-3)]GlcNAc
# Outline: as §1
# [14] = biological target: Gal(a1-3)Gal(b1-4)[Fuc(a1-3)]GlcNAc(b1-2)Man(a1-3)[Gal(a1-3)Gal(b1-4)[Fuc(a1-3)]GlcNAc(b1-2)Man(a1-6)]Man(b1-4)GlcNAc(b1-4)GlcNAc
# Outline: as §1
# Gal(a1-3)GalNAc = biological target: Gal(a1-3)GalNAc
# Outline: as §1
# [15] = biological target: Gal(a1-3)[Gal(a1-4)]Gal(b1-4)GlcNAc
# Outline: as §1
# [16] = biological target: Gal(a1-4)Gal(b1-3)GlcNAc(b1-2)Man(a1-3)[Gal(a1-4)Gal(b1-3)GlcNAc(b1-2)Man(a1-6)]Man(b1-4)GlcNAc(b1-4)GlcNAc
# Outline: as §1
# Gal(a1-4)Gal(b1-4)Glc = biological target: Gal(a1-4)Gal(b1-4)Glc
# Outline: as §1
# Gal(a1-4)Gal(b1-4)GlcNAc = biological target: Gal(a1-4)Gal(b1-4)GlcNAc
# Outline: as §1
# [17] = biological target: Gal(a1-4)Gal(b1-4)GlcNAc(b1-2)Man(a1-3)[Gal(a1-4)Gal(b1-4)GlcNAc(b1-2)Man(a1-6)]Man(b1-4)GlcNAc(b1-4)GlcNAc
# Outline: as §1
# [18] = biological target: Gal(a1-4)Gal(b1-4)GlcNAc(b1-3)Gal(b1-4)Glc
# Outline: as §1
# Gal(a1-4)GlcNAc = biological target: Gal(a1-4)GlcNAc
# Outline: as §1
# Gal(a1-6)Glc = biological target: Gal(a1-6)Glc
# Outline: as §1
# Gal(b1-2)Gal = biological target: Gal(b1-2)Gal
# Outline: as §1
# Gal(b1-3)Gal = biological target: Gal(b1-3)Gal
# Outline: as §1
# Gal(b1-3)Gal(b1-4)GlcNAc = biological target: Gal(b1-3)Gal(b1-4)GlcNAc
# Outline: as §1
# Gal(b1-3)GalNAc = biological target: Gal(b1-3)GalNAc
# Outline: as §1
# [19] = biological target: Gal(b1-3)GalNAc(a1-3)[Fuc(a1-2)]Gal(b1-4)Glc
# Outline: as §1
# [20] = biological target: Gal(b1-3)GalNAc(a1-3)[Fuc(a1-2)]Gal(b1-4)GlcNAc
# Outline: as §1
# Gal(b1-3)GalNAc(b1-3)Gal = biological target: Gal(b1-3)GalNAc(b1-3)Gal
# Outline: as §1
# [21] = biological target: Gal(b1-3)GalNAc(b1-3)Gal(a1-4)Gal(b1-4)Glc
# Outline: as §1
# [22] = biological target: Gal(b1-3)GalNAc(b1-4)Gal(b1-4)Glc
# Outline: as §1
# [23] = biological target: Gal(b1-3)GalNAc(b1-4)[Neu5Ac(a2-3)]Gal(b1-4)Glc
# Outline: as §1
# Gal(b1-3)GlcNAc = biological target: Gal(b1-3)GlcNAc
# Outline: as §1
# [24] = biological target: Gal(b1-3)GlcNAc(a1-3)Gal(b1-4)GlcNAc
# Outline: as §1
# [25] = biological target: Gal(b1-3)GlcNAc(a1-6)Gal(b1-4)GlcNAc
# Outline: as §1
# Gal(b1-3)GlcNAc(b1-2)Man = biological target: Gal(b1-3)GlcNAc(b1-2)Man
# Outline: as §1
# [26] = biological target: Gal(b1-3)GlcNAc(b1-2)Man(a1-3)[Gal(b1-3)GlcNAc(b1-2)Man(a1-6)]Man(b1-4)GlcNAc(b1-4)GlcNAc
# Outline: as §1
binder,measurement,setting,value
B1,glycan array binding signal (z-score),[1],0.851
same,glycan array binding signal (z-score),[2],1.06
same,glycan array binding signal (z-score),[3],-0.592
same,glycan array binding signal (z-score),Fuc(a1-4)GlcNAc,2
same,glycan array binding signal (z-score),Fuc(b1-3)GlcNAc,0.982
same,glycan array binding signal (z-score),Gal(a1-2)Gal,-0.047
same,glycan array binding signal (z-score),Gal(a1-3)Gal,-0.633
same,glycan array binding signal (z-score),Gal(a1-3)Gal(b1-3)GlcNAc,-0.392
same,glycan array binding signal (z-score),[4],-0.64
same,glycan array binding signal (z-score),[5],0.416
same,glycan array binding signal (z-score),[6],-0.502
same,glycan array binding signal (z-score),[7],-0.806
same,glycan array binding signal (z-score),[8],1.55
same,glycan array binding signal (z-score),Gal(a1-3)Gal(b1-4)Glc,0.133
same,glycan array binding signal (z-score),Gal(a1-3)Gal(b1-4)GlcNAc,-0.778
same,glycan array binding signal (z-score),[9],-0.751
same,glycan array binding signal (z-score),[10],0.016
same,glycan array binding signal (z-score),[11],-0.702
same,glycan array binding signal (z-score),[12],-0.599
same,glycan array binding signal (z-score),[13],-0.488
same,glycan array binding signal (z-score),[14],1.93
same,glycan array binding signal (z-score),Gal(a1-3)GalNAc,-0.074
same,glycan array binding signal (z-score),[15],-0.999
same,glycan array binding signal (z-score),[16],0.119
same,glycan array binding signal (z-score),Gal(a1-4)Gal(b1-4)Glc,0.209
same,glycan array binding signal (z-score),Gal(a1-4)Gal(b1-4)GlcNAc,0.392
same,glycan array binding signal (z-score),[17],10.8
same,glycan array binding signal (z-score),[18],1.15
same,glycan array binding signal (z-score),Gal(a1-4)GlcNAc,-0.35
same,glycan array binding signal (z-score),Gal(a1-6)Glc,-0.088
same,glycan array binding signal (z-score),Gal(b1-2)Gal,-0.267
same,glycan array binding signal (z-score),Gal(b1-3)Gal,0.043
same,glycan array binding signal (z-score),Gal(b1-3)Gal(b1-4)GlcNAc,-0.447
same,glycan array binding signal (z-score),Gal(b1-3)GalNAc,0.123
same,glycan array binding signal (z-score),[19],-0.447
same,glycan array binding signal (z-score),[20],-0.267
same,glycan array binding signal (z-score),Gal(b1-3)GalNAc(b1-3)Gal,1.8
same,glycan array binding signal (z-score),[21],0.595
same,glycan array binding signal (z-score),[22],0.878
same,glycan array binding signal (z-score),[23],-0.095
same,glycan array binding signal (z-score),Gal(b1-3)GlcNAc,-0.171
same,glycan array binding signal (z-score),[24],-0.682
same,glycan array binding signal (z-score),[25],-0.136
same,glycan array binding signal (z-score),Gal(b1-3)GlcNAc(b1-2)Man,0.727
same,glycan array binding signal (z-score),[26],-0.295

# A second format for some results above.
binder	measurement	setting	value
B1	glycan array binding signal (z-score)	Gal(b1-3)GalNAc	0.123
same	glycan array binding signal (z-score)	[19]	-0.447
same	glycan array binding signal (z-score)	[20]	-0.267

# Source: the supplement of paper PMC8728848
